# Measurements as given in paper PMC9140312.
# T1: Dlar Ig1-Ig2 (residues 32-237) (Drosophila) (UniProt P16621)
# T1 sequence: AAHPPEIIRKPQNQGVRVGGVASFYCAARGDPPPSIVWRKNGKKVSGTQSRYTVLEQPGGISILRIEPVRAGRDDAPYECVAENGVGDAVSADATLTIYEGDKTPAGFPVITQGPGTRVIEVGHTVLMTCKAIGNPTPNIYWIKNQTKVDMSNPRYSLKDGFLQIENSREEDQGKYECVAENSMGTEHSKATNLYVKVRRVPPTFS
# T2: sDlar, the entire ectodomain of soluble Dlar (Drosophila) (UniProt P16621)
# T2 sequence: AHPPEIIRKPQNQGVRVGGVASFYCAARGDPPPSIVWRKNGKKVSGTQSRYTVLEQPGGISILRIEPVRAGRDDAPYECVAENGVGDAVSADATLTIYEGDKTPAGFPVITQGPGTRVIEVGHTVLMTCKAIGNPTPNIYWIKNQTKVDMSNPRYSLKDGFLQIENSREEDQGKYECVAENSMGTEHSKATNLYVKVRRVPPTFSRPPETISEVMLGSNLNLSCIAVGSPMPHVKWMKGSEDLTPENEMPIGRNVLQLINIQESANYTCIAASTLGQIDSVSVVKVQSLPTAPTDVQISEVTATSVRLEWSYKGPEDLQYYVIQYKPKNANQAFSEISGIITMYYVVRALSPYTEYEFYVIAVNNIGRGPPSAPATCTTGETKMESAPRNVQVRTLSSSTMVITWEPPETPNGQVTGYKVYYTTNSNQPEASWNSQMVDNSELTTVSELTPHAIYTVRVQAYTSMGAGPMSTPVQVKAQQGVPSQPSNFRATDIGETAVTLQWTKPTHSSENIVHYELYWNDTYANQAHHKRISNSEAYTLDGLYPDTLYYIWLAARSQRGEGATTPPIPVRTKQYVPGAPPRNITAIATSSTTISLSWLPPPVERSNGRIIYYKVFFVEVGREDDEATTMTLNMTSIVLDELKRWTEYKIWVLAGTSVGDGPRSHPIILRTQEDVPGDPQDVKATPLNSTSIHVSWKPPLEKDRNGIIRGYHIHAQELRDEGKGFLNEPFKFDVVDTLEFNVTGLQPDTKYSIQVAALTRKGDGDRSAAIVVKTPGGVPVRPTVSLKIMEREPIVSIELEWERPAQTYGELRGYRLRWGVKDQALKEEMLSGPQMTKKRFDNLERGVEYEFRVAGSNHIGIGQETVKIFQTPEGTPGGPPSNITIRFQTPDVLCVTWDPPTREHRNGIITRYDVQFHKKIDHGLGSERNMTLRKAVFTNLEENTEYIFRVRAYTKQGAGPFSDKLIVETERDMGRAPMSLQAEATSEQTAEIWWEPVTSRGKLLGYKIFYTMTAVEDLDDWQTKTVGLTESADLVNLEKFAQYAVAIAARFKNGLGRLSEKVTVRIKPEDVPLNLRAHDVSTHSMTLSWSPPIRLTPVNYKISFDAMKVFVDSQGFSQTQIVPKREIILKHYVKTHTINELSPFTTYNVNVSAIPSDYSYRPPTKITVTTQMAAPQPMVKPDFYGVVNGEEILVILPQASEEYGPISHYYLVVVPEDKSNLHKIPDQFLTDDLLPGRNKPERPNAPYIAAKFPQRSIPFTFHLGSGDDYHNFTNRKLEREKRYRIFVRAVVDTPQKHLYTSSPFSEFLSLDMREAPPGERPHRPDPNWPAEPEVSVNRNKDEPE
# T3: Dlar FN4-FN5 (residues 608-812) (Drosophila) (UniProt P16621)
# T3 sequence: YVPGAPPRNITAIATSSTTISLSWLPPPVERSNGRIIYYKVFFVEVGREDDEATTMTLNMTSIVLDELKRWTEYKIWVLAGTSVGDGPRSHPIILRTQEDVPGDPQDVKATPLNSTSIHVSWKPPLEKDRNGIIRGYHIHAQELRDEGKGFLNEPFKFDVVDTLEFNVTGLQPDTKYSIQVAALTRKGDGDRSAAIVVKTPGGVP
# What was measured:
# Experiment in all cases: affinity purification with mass spectrometry; purified Dlar Ig1-Ig2, Dlar FN4-FN5 or sDlar attached to NHS-Activated Sepharose, incubated with pre-cleared WT L3 larval lysate; washed three times with lysis buffer minus detergent; LC-MS/MS; hits enriched at least 10-fold over control; only the target purified
# [1] = molecular target: T1, Dlar Ig1-Ig2 (residues 32-237) (Drosophila)
# [2] = molecular target: T2, sDlar, the entire ectodomain of soluble Dlar (Drosophila)
# [3] = molecular target: T3, Dlar FN4-FN5 (residues 608-812) (Drosophila)
# [4] = molecular target: T1, Dlar Ig1-Ig2 (residues 32-237) (Drosophila); remark: listed apart in the source
# [5] = molecular target: T2, sDlar, the entire ectodomain of soluble Dlar (Drosophila); remark: listed apart in the source
# [6] = molecular target: T3, Dlar FN4-FN5 (residues 608-812) (Drosophila); remark: listed apart in the source
Molecule,binding [1],binding [4],further results
Secreted Wg-interacting molecule (Swim) (Drosophila (endogenous in L3 larvae)),binds,,
"Drosophila Lar (Dlar), endogenous (from UniProt P16621 33-2029) (receptor)",binds,,binding [2]: binds; binding [3]: binds
"Glutactin (Glt), endogenous (protein, UniProt P33438 18-1026) HSVGLRPDYNDYSDEDTRRDWLPEPLKPVPWQSETRYAQPQEAVVQAPEVGQILGISGHKTIANRPVNAFLGIRYGTVGGGLARFQAAQPIGYQGRVNATVQSPNCAQFPELDRLRLSESRGENVDDCLTLDIYAPEGANQLPVLVFVHGEMLFDGGSEEAQPDYVLEKDVLLVSINYRLAPFGFLSALTDELPGNVALSDLQLALEWLQRNVVHFGGNAGQVTLVGQAGGATLAHALSLSGRAGNLFQQLILQSGTALNPYLIDNQPLDTLSTFARLARCPPPSINPSAQGLKPLYDCLARLPTSQLVAAFEQLLLQNEHLGLTQLGGFKLVVGDPLGFLPSHPASLATNSSLALPMIIGATKDASAFIVSRIYDQLARLQSRNVSDYIDVVLRHTAPPSEHRLWKQWALREIFTPIQEQTASLQTVAPGLLELSNYILYRAPVINSISQSYRSVPAYLYTFDYRGEHHRFGHLSNPLPFGVDASLSDDSVYLFPYPPEASRLNPLDRSLSRALVTMWVNFATTGVPNPSSGVWPQATSEYGPFLRFTNNQQSPLELDPHFGEGIYLPNYRVIYKPTTNFSPPITTTTTTTTTTTTTSRPYAYNPYANWQNRPSQQHPNWHPADPEYVRAQEARQQEFIREREQRRREQQLRDQQRYPQQEPREQQDERIRQQREQEERLRQQREQEERLRQQRELEERIRQQQEREQYEREQQEREQREREELERQQREREQQQPEQQPEYNPEPVNPWGYPVQEPQPDDNPEDGRLPYPSYEQYGPEGNENLPETDANRNFSEEDREQQQQEQLRREQQEQQEREYQLQLEREQQEREQQERGQQEPGPEEYPSYEEYSRALQEKNAERDRIYAEEQERERQQQETLLQENQQHPEQSLPEEQPTHPNYEAYDGDRSYAEEQEREQQRRDQVEQEREEQPDEDQGEEYERSPDEEEAAEQDVLKVEDFPSYEAYLEAATKLREEQEEQEKLEEERYRAQQEEEDRIQAERERNSRN",,no binding,binding [5]: no binding; binding [6]: no binding
"Division abnormally delayed (Dally) (protein, UniProt Q24114 27-602) KHLDLDGIHHHQHHLHSATTHHRRRLQRDSRAKDAVGGSTHQCDAVKSYFESIDIKSSGTYSEKGAICGGNCCNNATELELRDKAAGMFEQLLHHHTSSLRGVLETNAKQFQSHVLELAQISENMTHSLFSKVYTRMVPSSRMMIHQLYTEIMNHLIYTSNYTNSNGQLGRRGIGSVQSNLEEAVRHFFVQLFPVAYHQMVHLSKNNLGDLHEDYVNCLQHNFDEMHPFGDIPQQVQSNLGKSVHMSNVFMNALLQAAEVLSEADALYGEQLTDTCKLHLLKMHYCPNCNGHHSSSRSETKLCYGYCKNVMRGCSAEYAGLLDSPWSGVVDSLNNLVTTHILSDTGIINVIKHLQTYFSEAIMAAMHNGPELEKKVKKTCGTPSLTPYSSGEPDARPPPHKNNVKWATDPDPGMVLFLSTIDKSKEFYTTIVDNFCDEQQHSRDDHSCWSGDRFGDYTQLLINPGTDSQRYNPEVPFNAKAQTGKLNELVDKLFKIRKSIGAAAPSNSIQATHDIQNDMGEGSGGGEGQIGDDEEEYGGAHGSGDGSGDGPHTPIEESEGTTTNEVESRDSGKTSG",,binds,

# Continued, in another order:
binding [1],binding [4],Molecule,further results
,binds,"Syndecan (Sdc) (protein, UniProt P49415 29-399) QDQKSVKPSAAAPSAAASRPHDEIYIDDDSIEGSGGRGGIHEDLEKDPDYSGSGFGPDDEDAEPDQHSHSSHNTRISQSSNSGINTAHTPTQTSSTIPTTSTSTPMPTTTPTATTPASTTTAAATQISSFANSSSTTTTTLAPTIPAEPQQPLFPPFDKDLDTESSGDGIDADAEDDDEDDGDDKDYDYNKELDKEIDIDGPEPGHLPPVVHHNTVETGHIPTTDEIDVDGGDEDDNGDSDIDGPRIGGNDGDITERGPGAGGSNVHELDPNTNVNSQPSDTKGIDHRPNGNEVVIMSEDDRTSSFFSQPGILAAVIGGAVVGLLCAILVVMFIVYRMRKKDEGSYALDEPKRSPANNSYAKNANNREFYA",
,binds,"Wnt/Wingless (Wg) (ligand, UniProt P09615 18-468) GSSLSQVEGKQKSGRGRGSMWWGIAKVGEPNNITPIMYMDPAIHSTLRRKQRRLVRDNPGVLGALVKGANLAISECQHQFRNRRWNCSTRNFSRGKNLFGKIVDRGCRETSFIYAITSAAVTHSIARACSEGTIESCTCDYSHQSRSPQANHQAGSVAGVRDWEWGGCSDNIGFGFKFSREFVDTGERGRNLREKMNLHNNEAGRAHVQAEMRQECKCHGMSGSCTVKTCWMRLANFRVIGDNLKARFDGATRVQVTNSLRATNALAPVSPNAAGSNSVGSNGLIIPQSGLVYGEEEERMLNDHMPDILLENSHPISKIHHPNMPSPNSLPQAGQRGGRNGRRQGRKHNRYHFQLNPHNPEHKPPGSKDLVYLEPSPSFCEKNLRQGILGTHGRQCNETSLGVDGCGLMCCGRGYRRDEVVVVERCACTFHWCCEVKCKLCRTKKVIYTCL",

# Read-outs that look alike come from different tables or passages of the source. These are yes or no findings as the source states them, for the method shown. Binding seen in cells or lysates may run through a third protein. Here binding means that the protein was enriched with, or labelled near, the bait; the list need not be complete. For some of these results: A no says only that the protein was not detected with the bait.
